Assay [1] concerns the target extracellular domain of mouse ICAM-1 (a.a. 28-485, polyhistidine-tagged), biotinylated, monomeric (mouse) (UniProt P13597). Briefly: cell adhesion to coated plates; 96-well plates coated with streptavidin, then increasing concentrations of biotinylated ICAM-1; CTV-labelled OT-1 CTLs in PBS with 0.5% BSA, 2 mM MgCl2, 1 mM CaCl2; 20 min at 37 °C; washed; bound cells read by fluorimetry; talin-depleted CTLs re-expressing the talin head; only the target purified.

Amino acid sequences for entries named in this document (tags omitted). A change or cut given only in a name is not applied to a line headed by its entry. Residues count along the entry.
UniProt P13597, residues 28-485: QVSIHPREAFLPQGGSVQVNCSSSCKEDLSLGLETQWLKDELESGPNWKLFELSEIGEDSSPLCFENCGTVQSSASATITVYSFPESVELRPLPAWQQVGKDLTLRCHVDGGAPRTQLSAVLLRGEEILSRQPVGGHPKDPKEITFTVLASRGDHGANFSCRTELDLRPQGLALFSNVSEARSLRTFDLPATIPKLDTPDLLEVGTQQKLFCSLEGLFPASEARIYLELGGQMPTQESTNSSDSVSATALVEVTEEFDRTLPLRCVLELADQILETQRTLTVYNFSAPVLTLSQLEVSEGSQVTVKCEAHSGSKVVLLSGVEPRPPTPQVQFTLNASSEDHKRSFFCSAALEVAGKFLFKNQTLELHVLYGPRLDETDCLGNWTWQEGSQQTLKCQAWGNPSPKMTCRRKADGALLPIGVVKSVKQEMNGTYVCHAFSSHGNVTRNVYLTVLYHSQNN
UniProt P24063: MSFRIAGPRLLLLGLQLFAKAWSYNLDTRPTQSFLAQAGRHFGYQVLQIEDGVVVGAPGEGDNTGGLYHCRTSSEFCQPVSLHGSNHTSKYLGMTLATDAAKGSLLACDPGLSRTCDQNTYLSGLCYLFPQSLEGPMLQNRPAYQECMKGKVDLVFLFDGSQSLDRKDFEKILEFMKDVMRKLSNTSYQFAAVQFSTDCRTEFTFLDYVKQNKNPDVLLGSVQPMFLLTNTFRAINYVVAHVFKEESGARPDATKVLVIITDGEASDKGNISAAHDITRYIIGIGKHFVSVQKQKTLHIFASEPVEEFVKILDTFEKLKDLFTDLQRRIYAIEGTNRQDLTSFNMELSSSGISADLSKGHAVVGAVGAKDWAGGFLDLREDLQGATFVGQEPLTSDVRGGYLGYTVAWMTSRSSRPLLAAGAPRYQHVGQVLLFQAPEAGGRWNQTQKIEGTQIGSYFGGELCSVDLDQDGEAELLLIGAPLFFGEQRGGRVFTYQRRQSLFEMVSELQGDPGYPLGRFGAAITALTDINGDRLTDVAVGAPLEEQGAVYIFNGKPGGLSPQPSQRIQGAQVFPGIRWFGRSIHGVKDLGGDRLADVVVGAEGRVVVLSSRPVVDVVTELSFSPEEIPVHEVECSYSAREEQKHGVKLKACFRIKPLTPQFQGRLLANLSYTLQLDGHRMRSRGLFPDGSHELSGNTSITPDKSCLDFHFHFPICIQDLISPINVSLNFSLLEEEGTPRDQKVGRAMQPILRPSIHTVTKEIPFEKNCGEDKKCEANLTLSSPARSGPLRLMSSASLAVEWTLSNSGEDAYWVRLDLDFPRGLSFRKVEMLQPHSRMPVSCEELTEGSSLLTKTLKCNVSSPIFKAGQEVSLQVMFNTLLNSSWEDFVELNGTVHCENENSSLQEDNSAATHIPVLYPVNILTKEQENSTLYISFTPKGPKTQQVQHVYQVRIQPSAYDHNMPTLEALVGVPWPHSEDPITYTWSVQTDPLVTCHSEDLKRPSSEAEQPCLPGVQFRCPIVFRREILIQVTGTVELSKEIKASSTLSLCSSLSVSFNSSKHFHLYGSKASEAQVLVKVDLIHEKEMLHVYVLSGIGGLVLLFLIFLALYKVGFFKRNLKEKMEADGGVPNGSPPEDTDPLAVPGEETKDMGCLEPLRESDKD

Assay [2] shares this target. Briefly: cell adhesion to coated plates; as a2, but OT-1 Cas9 CTLs depleted of talin by CRISPR (TlnCR); only the target purified.
The target is the same in assay [3]. Briefly: DNA hairpin molecular tension probes (MTP), fluorescence imaging; biotinylated ICAM-1 (5 µg/mL) held by streptavidin on Cy3B/BHQ-2 DNA hairpin probes (unwinding at 4.7 pN) on glass, beside pMHC probes; OT-1 CTLs added in complete RPMI with IL-2; imaged for 30 min; CTLs with control or talin gRNA ± talin head in Figs. 6 and 8; only the target purified.
Assay [4] concerns the target dimeric Fc-ICAM-1, biotinylated (UniProt P13597). Described as above.

No constants are given. Whether binding was seen depends on the method and setting. Some entries that bind do so weakly or less than the wild type.

For the substance “LFA-1 (lymphocyte function-associated antigen 1), integrin αLβ2 (from UniProt P24063 24-1162; P11835 24-771) (receptor)”, the binding entry in assay [1] is reported as “binds”; in assay [2] it was “binds weakly”; in assay [3], “binds”; in assay [4] it was “binds”.

For the origin of these results see publication PMC9184626.
